Measured values published in PubChem BioAssay AID248 (DTP/NCI, 2004).
The list is a part of this screen's results and no random one: it covers a few groups of compounds. Not every dose and run of a compound is shown. T/C gives the treated animals as a percentage of the vehicle group. Where survival is the endpoint, the PubChem record calls one and a half times the control and up active, and a quarter to a half above the control has no call in these data; cut-offs in other NCI protocols can differ. Some entries show no survivor count and are marked so; the dose need not have been tolerated. Schedules are NCI's codes, taken here to give the interval after Q, in days (D) or hours (H), and the number of doses after X. Some entries were tested several times; their values stand side by side, smallest first. Additions like (4×) give the number of equal values in this list. Some schedule codes hold Z or #, which are not explained here.

System: L1210 leukemia ip in BDF1 mice, survival T/C
Assay: NCI In Vivo Anticancer Drug Screen. Data for tumor model L1210 Leukemia (intraperitoneal) in B6D2F1 (BDF1) mice
Conditions: T/C endpoint: mean survival time, higher T/C = longer survival

Question: Which results are given for `NC1CCCCC1.NP(=O)(O)N(CCCl)CCCl`?
Answer: T/C (dose: 0.63 mg/kg/injection, schedule: Q03HX008 (ip), vehicle: saline): 108 % of control [survivor count not shown]; T/C (dose: 0.63 mg/kg/injection, schedule: Q03HX024 (ip), vehicle: saline): 126 % of control [survivor count not shown]; T/C (dose: 1.25 mg/kg/injection, schedule: Q03HX008 (ip), vehicle: saline): 132 % of control [survivor count not shown]; T/C (dose: 1.25 mg/kg/injection, schedule: Q03HX024 (ip), vehicle: saline): 144 % of control [survivor count not shown]; T/C (dose: 1.56 mg/kg/injection, schedule: Q## X040 (ip), vehicle: saline): 100 % of control [survivor count not shown]; T/C (dose: 2.5 mg/kg/injection, schedule: Q03HX008 (ip), vehicle: saline): 179 % of control [survivor count not shown]; T/C (dose: 2.5 mg/kg/injection, schedule: Q03HX024 (ip), vehicle: saline): 143 % of control [survivor count not shown]; T/C (dose: 3.12 mg/kg/injection, schedule: Q## X040 (ip), vehicle: saline): 105 % of control [survivor count not shown]; T/C (dose: 5.0 mg/kg/injection, schedule: Q01DX Z (ip), vehicle: clinical formulation): 125 % of control [survivor count not shown]; T/C (dose: 5.0 mg/kg/injection, schedule: Q01DX Z (ip), vehicle: water): 119 % of control [survivor count not shown]; T/C (dose: 6.25 mg/kg/injection, schedule: Q01DX009 (ip), vehicle: water): 113 % of control [survivor count not shown]; T/C (dose: 6.25 mg/kg/injection, schedule: Q03HX008 (ip), vehicle: saline): 113 % of control [survivor count not shown]; T/C (dose: 6.25 mg/kg/injection, schedule: Q03HX024 (ip), vehicle: saline): 121 % of control [survivor count not shown]; T/C (dose: 6.25 mg/kg/injection, schedule: Q## X040 (ip), vehicle: saline): 125 % of control [survivor count not shown]; T/C (dose: 6.25 mg/kg/injection, schedule: Q#A X034 (ip), vehicle: saline): 117 % of control [survivor count not shown]; T/C (dose: 10.0 mg/kg/injection, schedule: Q01DX005 (ip), vehicle: saline): 111 % of control [survivor count not shown]; T/C (dose: 10.0 mg/kg/injection, schedule: Q01DX009 (ip), vehicle: saline): 130 % of control [survivor count not shown]; T/C (dose: 10.0 mg/kg/injection, schedule: Q01DX009 (sc), vehicle: saline): 97 % of control [survivor count not shown]; T/C (dose: 10.0 mg/kg/injection, schedule: Q01DX Z (ip), vehicle: clinical formulation): 152 % of control [survivor count not shown]; T/C (dose: 10.0 mg/kg/injection, schedule: Q01DX Z (ip), vehicle: water): 133 % of control [survivor count not shown]; T/C (dose: 12.5 mg/kg/injection, schedule: Q01DX005 (ip), vehicle: saline): 109 % of control [survivor count not shown]; T/C (dose: 12.5 mg/kg/injection, schedule: Q01DX009 (ip), vehicle: saline): 119 % of control [survivor count not shown]; T/C (dose: 12.5 mg/kg/injection, schedule: Q01DX009 (ip), vehicle: water): 123 % of control [survivor count not shown]; T/C (dose: 12.5 mg/kg/injection, schedule: Q01DX017 (ip), vehicle: saline): 119 % of control [survivor count not shown]; T/C (dose: 12.5 mg/kg/injection, schedule: Q03HX008 (ip), vehicle: saline): 149 % of control [survivor count not shown]; T/C (dose: 12.5 mg/kg/injection, schedule: Q03HX024 (ip), vehicle: saline): 147 % of control [survivor count not shown]; T/C (dose: 12.5 mg/kg/injection, schedule: Q#A X034 (ip), vehicle: saline): 133 % of control [survivor count not shown]; T/C (dose: 18.0 mg/kg/injection, schedule: Q01DX009 (ip), vehicle: saline): 146 % of control [survivor count not shown]; T/C (dose: 20.0 mg/kg/injection, schedule: Q01DX005 (ip), vehicle: saline): 141 % of control [survivor count not shown]; T/C (dose: 20.0 mg/kg/injection, schedule: Q01DX009 (ip), vehicle: saline): 156 % of control [survivor count not shown]; T/C (dose: 20.0 mg/kg/injection, schedule: Q01DX009 (sc), vehicle: saline): 98 % of control [survivor count not shown]; T/C (dose: 20.0 mg/kg/injection, schedule: Q01DX Z (ip), vehicle: clinical formulation): 182 % of control [survivor count not shown]; T/C (dose: 20.0 mg/kg/injection, schedule: Q01DX Z (ip), vehicle: water): 151 % of control [survivor count not shown]; T/C (dose: 24.0 mg/kg/injection, schedule: Q04DX003 (ip), vehicle: clinical formulation): 155 % of control [survivor count not shown]; T/C (dose: 24.0 mg/kg/injection, schedule: Q04DX003 (ip), vehicle: water): 144 % of control [survivor count not shown]; T/C (dose: 25.0 mg/kg/injection, schedule: Q01DX001 (ip), vehicle: water): 136 % of control [survivor count not shown]; T/C (dose: 25.0 mg/kg/injection, schedule: Q01DX005 (ip), vehicle: saline): 138 % of control [survivor count not shown]; T/C (dose: 25.0 mg/kg/injection, schedule: Q01DX009 (ip), vehicle: saline): 107 % of control [survivor count not shown]; T/C (dose: 25.0 mg/kg/injection, schedule: Q01DX009 (ip), vehicle: water): 151 % of control [survivor count not shown]; T/C (dose: 25.0 mg/kg/injection, schedule: Q01DX017 (ip), vehicle: saline): 135 % of control [survivor count not shown]; T/C (dose: 25.0 mg/kg/injection, schedule: Q02DX005 (ip), vehicle: saline): 112 % of control [survivor count not shown]; T/C (dose: 25.0 mg/kg/injection, schedule: Q02DX009 (ip), vehicle: saline): 125 [survivor count not shown] and 151 % of control [survivor count not shown]; T/C (dose: 25.0 mg/kg/injection, schedule: Q03HX008 (ip), vehicle: saline): 164 % of control [survivor count not shown]; T/C (dose: 25.0 mg/kg/injection, schedule: Q03HX024 (ip), vehicle: saline): 234 % of control [survivor count not shown]; T/C (dose: 25.0 mg/kg/injection, schedule: Q04DX003 (ip), vehicle: water): 121 % of control [survivor count not shown]; T/C (dose: 25.0 mg/kg/injection, schedule: Q#A X034 (ip), vehicle: saline): 207 % of control [survivor count not shown]; T/C (dose: 27.0 mg/kg/injection, schedule: Q01DX009 (ip), vehicle: saline): 160 % of control [survivor count not shown]; T/C (dose: 27.0 mg/kg/injection, schedule: Q08DX002 (ip), vehicle: water): 140 [survivor count not shown] and 142 % of control [survivor count not shown]; T/C (dose: 36.0 mg/kg/injection, schedule: Q04DX003 (ip), vehicle: clinical formulation): 160 % of control [survivor count not shown]; T/C (dose: 36.0 mg/kg/injection, schedule: Q04DX003 (ip), vehicle: water): 168 % of control [survivor count not shown]; T/C (dose: 40.0 mg/kg/injection, schedule: Q01DX001 (ip), vehicle: saline): 146 % of control [survivor count not shown]; T/C (dose: 40.0 mg/kg/injection, schedule: Q01DX001 (sc), vehicle: saline): 100 % of control [survivor count not shown]; T/C (dose: 40.0 mg/kg/injection, schedule: Q01DX005 (ip), vehicle: saline): 208 % of control [survivor count not shown]; T/C (dose: 40.0 mg/kg/injection, schedule: Q01DX009 (ip), vehicle: saline): 216 [survivor count not shown] and 221 % of control [survivor count not shown]; T/C (dose: 40.0 mg/kg/injection, schedule: Q01DX009 (oral), vehicle: saline): 100 % of control [survivor count not shown]; T/C (dose: 40.0 mg/kg/injection, schedule: Q01DX009 (sc), vehicle: saline): 119 % of control [survivor count not shown]; T/C (dose: 40.0 mg/kg/injection, schedule: Q01DX Z (ip), vehicle: clinical formulation): 244 % of control [survivor count not shown]; T/C (dose: 40.0 mg/kg/injection, schedule: Q04DX003 (ip), vehicle: saline): 162 % of control [survivor count not shown]; T/C (dose: 40.0 mg/kg/injection, schedule: Q08DX002 (ip), vehicle: water): 134 [survivor count not shown] and 144 % of control [survivor count not shown]; T/C (dose: 44.0 mg/kg/injection, schedule: Q01DX001 (ip), vehicle: saline): 148 % of control [survivor count not shown]; T/C (dose: 50.0 mg/kg/injection, schedule: Q01DX001 (ip), vehicle: saline): 106 [survivor count not shown], 123 [survivor count not shown], 128 [survivor count not shown] (2×), 143 % of control [survivor count not shown] (2×); T/C (dose: 50.0 mg/kg/injection, schedule: Q01DX001 (ip), vehicle: water): 143 % of control [survivor count not shown]; T/C (dose: 50.0 mg/kg/injection, schedule: Q01DX005 (ip), vehicle: saline): 265 % of control [survivor count not shown]; T/C (dose: 50.0 mg/kg/injection, schedule: Q01DX009 (ip), vehicle: saline): 192 % of control [survivor count not shown]; T/C (dose: 50.0 mg/kg/injection, schedule: Q01DX009 (ip), vehicle: water): 187 % of control [survivor count not shown]; T/C (dose: 50.0 mg/kg/injection, schedule: Q01DX017 (ip), vehicle: saline): 209 % of control [survivor count not shown]; T/C (dose: 50.0 mg/kg/injection, schedule: Q02DX005 (ip), vehicle: saline): 160 % of control [survivor count not shown]; T/C (dose: 50.0 mg/kg/injection, schedule: Q02DX009 (ip), vehicle: saline): 139 [survivor count not shown] and 242 % of control [survivor count not shown]
